Source: US20140363438A1, “NEUREGULIN ANTIBODIES AND USES THEREOF” (Genentech, Inc., priority 2011, published 2014)
No constants are given. Whether binding was seen depends on the method and setting. Some binding calls cover weakened binding; strength is not graded here.

Assays:
[1] = biological target: T1, Recombinant human NRG1-β ECD domain (R&D Systems, cat#377-HB/CF) (human) (UniProt Q02297); experiment: SPR (BIAcore T100), IgG captured by anti-human Fc, 125 nM NRG1β injected; sensorgram
T1 sequence: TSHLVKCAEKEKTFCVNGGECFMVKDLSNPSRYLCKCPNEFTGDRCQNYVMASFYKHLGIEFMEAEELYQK

[2] = biological target: T1, Recombinant human NRG1-β ECD domain (R&D Systems, cat#377-HB/CF) (human); experiment: competition assay, competitor 526.90
[3] = biological target: T1, Recombinant human NRG1-β ECD domain (R&D Systems, cat#377-HB/CF) (human); experiment: competition assay, competitor 526.09
[4] = biological target: T1, Recombinant human NRG1-β ECD domain (R&D Systems, cat#377-HB/CF) (human); experiment: competition ELISA on NRG1β (HRG1β); signal of 526.02, 526.90 or 538.24.71 against rising 538.24.71; the format is not described in the text
[5] = biological target: T1, Recombinant human NRG1-β ECD domain (R&D Systems, cat#377-HB/CF) (human); experiment: competition assay, competitor 538.24.17
[6] = biological target: T1, Recombinant human NRG1-β ECD domain (R&D Systems, cat#377-HB/CF) (human); experiment: competition assay, competitor 538.24.71
[7] = biological target: T1, Recombinant human NRG1-β ECD domain (R&D Systems, cat#377-HB/CF) (human); experiment: competition ELISA on NRG1β; signal of 526.90 against rising 538.24.71

Binder | binding [1] | further results
anti-NRG1 antibody 538.24 (antibody, human IgG1, V domains shown, also called YW538.24) VH: EVQLVESGGGLVQPGGSLRLSCAASGFTFSGTWIHWVRQAPGKGLEWVAAITPADGSTNYADSVKGRFTISADTSKNTAYLQMNSLRAEDTAVYYCATYMFAMDYWGQGTLVTVSS VL: DIQMTQSPSSLSASVGDRVTITCRASQDVSTAVAWYQQKPGKAPKLLIYSASFLYSGVPSRFSGSGSGTDFTLTISSLQPEDFATYYCQQSYTTPPTFGQGTKVEIKR | binds | 
anti-NRG1 antibody 538.24.17 (antibody, human IgG1, V domains shown, also called YW538.24.17) VH: EVQLVESGGGLVQPGGSLRLSCAASGFTFSGTWIHWVRQAPGKGLEWVAAITPADGSTNYADSVKGRFTISADTSKNTAYLQMNSLRAEDTAVYYCATYMFAMDYWGQGTLVTVSS VL: DIQMTQSPSSLSASVGDRVTITCRASQDVSTAVAWYQQKPGKAPKLLIYSASFLYSGVPSRFSGSGSGTDFTLTISSLQPEDFATYYCQQSYWMPPTFGQGTKVEIKR | binds | binding [2]: binds
anti-NRG1 antibody 538.24.36 (antibody, human IgG1, V domains shown, also called YW538.24.36) VH: EVQLVESGGGLVQPGGSLRLSCAASGFTFSGTWIHWVRQAPGKGLEWVAAITPADGSTNYADSVKGRFTISADTSKNTAYLQMNSLRAEDTAVYYCATYMFAMDYWGQGTLVTVSS VL: DIQMTQSPSSLSASVGDRVTITCRASQNVDRSLAWYQQKPGKAPKLLIYAASSLESGVPSRFSGSGSGTDFTLTISSLQPEDFATYYCQQHYTLPFTFGQGTKVEIKR | binds | 
anti-NRG1 antibody 538.24.94 (antibody, human IgG1, V domains shown, also called YW538.24.94) VH: EVQLVESGGGLVQPGGSLRLSCAASGFTFSGTWIHWVRQAPGKGLEWVAAITPADGSTNYADSVKGRFTISADTSKNTAYLQMNSLRAEDTAVYYCATYMFAMDYWGQGTLVTVSS VL: DIQMTQSPSSLSASVGDRVTITCRASQDVKKSLAWYQQKPGKAPKLLIYGASNLESGVPSRFSGSGSGTDFTLTISSLQPEDFATYYCQQHYTLPLTFGQGTKVEIKR | binds | 
538.24.38 (antibody, V domains shown, also called YW538.24.38; copies: 2 + 2) VH: EVQLVESGGGLVQPGGSLRLSCAASGFTFSGTWIHWVRQAPGKGLEWVAAITPADGSTNYADSVKGRFTISADTSKNTAYLQMNSLRAEDTAVYYCATYMFAMDYWGQGTLVTVSS VL: DIQMTQSPSSLSASVGDRVTITCRASQDVSTAVAWYQQKPGKAPKLLIYSASFLYSGVPSRFSGSGSGTDFTLTISSLQPEDFATYYCQQSYTIPMTFGQGTKVEIK | binds | 
anti-NRG1 antibody 538.24.71 (antibody, human IgG1, kappa, V domains shown, also called YW538.24.71) VH: EVQLVESGGGLVQPGGSLRLSCAASGFTFSGTWIHWVRQAPGKGLEWVAAITPADGSTNYADSVKGRFTISADTSKNTAYLQMNSLRAEDTAVYYCATYMFAMDYWGQGTLVTVSS VL: DIQMTQSPSSLSASVGDRVTITCRASQDVSISLAWYQQKPGKAPKLLIYGASNLESGVPSRFSGSGSGTDFTLTISSLQPEDFATYYCQQHYTLPFTFGQGTKVEIKR | binds | binding [3]: binds; binding [4]: binds
anti-NRG1 antibody 526.90 (antibody, human IgG1, V domains shown, also called YW526.90) VH: EVQLVESGGGLVQPGGSLRLSCAASGFTFSGNAMSWVRQAPGKGLEWVSWIYPSGGNTYYADSVKGRFTISADTSKNTAYLQMNSLRAEDTAVYYCARSYILSYPSITWAFDYWGQGTLVTVSS VL: DIQMTQSPSSLSASVGDRVTITCRASQSISSYLAWYQQKPGKAPKLLIYGASSRASGVPSRFSGSGSGTDFTLTISSLQPEDFATYYCQQSYSTPITFGQGTKVEIKR |  | binding [5]: binds; binding [6]: binds; binding [7]: binds
